Literature values as cited in patent publication US20130289019A1, “METHODS OF TREATING BEHAVIORIAL AND/OR MENTAL DISORDERS” (AMAZING GRACE, INC., priority 2012, published 2013).

The chains behind the UniProt entries cited, without tags or fusion partners.
UniProt P20309, whole entry: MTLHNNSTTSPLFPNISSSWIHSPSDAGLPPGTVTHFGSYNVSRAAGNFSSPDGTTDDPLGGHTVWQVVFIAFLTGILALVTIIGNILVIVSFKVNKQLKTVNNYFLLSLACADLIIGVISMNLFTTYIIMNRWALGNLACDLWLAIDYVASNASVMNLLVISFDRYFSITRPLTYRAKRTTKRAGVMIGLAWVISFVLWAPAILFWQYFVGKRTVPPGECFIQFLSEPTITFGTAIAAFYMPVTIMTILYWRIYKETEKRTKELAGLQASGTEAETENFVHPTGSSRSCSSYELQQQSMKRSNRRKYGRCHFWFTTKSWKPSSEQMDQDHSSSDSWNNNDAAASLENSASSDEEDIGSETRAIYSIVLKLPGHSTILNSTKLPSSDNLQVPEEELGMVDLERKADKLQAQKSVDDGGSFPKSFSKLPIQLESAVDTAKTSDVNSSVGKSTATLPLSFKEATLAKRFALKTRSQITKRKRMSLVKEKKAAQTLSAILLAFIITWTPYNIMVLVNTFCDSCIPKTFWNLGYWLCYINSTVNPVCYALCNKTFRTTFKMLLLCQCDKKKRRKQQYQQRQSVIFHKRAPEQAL

Target: M3 receptors (Homo sapiens, UniProt P20309)
Details: Billard et al. 1995; cited from earlier work

## CN1[C@@H]2C[C@@H](OC(=O)[C@H](CO)c3ccccc3)C[C@H]1[C@@H]1O[C@@H]12 [Scopolamine]
  Ki: 0.063 nM
